Measured values taken from patent CN106749659A.
These are yes or no findings as the source states them, for the method shown. Some binding calls cover weakened binding; strength is not graded here.

T1: 人C-反应蛋白 (human C-reactive protein, natural, extracted from human plasma, HyTest) (human) (UniProt P02741)
T1 sequence (looked up): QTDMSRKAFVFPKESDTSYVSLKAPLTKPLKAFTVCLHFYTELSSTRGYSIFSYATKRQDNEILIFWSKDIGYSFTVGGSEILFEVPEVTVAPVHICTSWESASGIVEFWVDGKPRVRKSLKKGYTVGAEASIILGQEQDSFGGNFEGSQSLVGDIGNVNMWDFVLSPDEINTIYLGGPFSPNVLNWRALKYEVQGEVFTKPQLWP


Key:
[1] = target: T1, 人C-反应蛋白 (human C-reactive protein, natural, extracted from human plasma, HyTest) (human); assay: indirect ELISA, CRP coated at 1 μg/mL, hybridoma supernatant, HRP goat anti-mouse IgG, OD450
[2] = target: T1, 人C-反应蛋白 (human C-reactive protein, natural, extracted from human plasma, HyTest) (human); assay: colloidal gold lateral flow sandwich, P20 as coated capture antibody
[3] = target: T1, 人C-反应蛋白 (human C-reactive protein, natural, extracted from human plasma, HyTest) (human); assay: Western blot of natural CRP from native and SDS polyacrylamide gels, HRP-labelled scFv

binding [1] | binding [2] | binding [3] | Binder
binds | – | – | 抗体 of 杂交瘤细胞株M20 (mouse monoclonal antibody in the hybridoma supernatant) (antibody, V domains shown) VH: EVMLVESGGGLVKPGGSLKLSCAASGFTFSSYAMSWVRQTPERRLEWVATISTSGSDRYYPDSVKWRFTISRDSAKNILYLQMSSLRSEDTAMYYCARRGWDYWGQGTSVTVSA VL: DVVMTQTPLSLPVSLGDQASISCRSSQSLVHSNGNTYLHWYLQKSGQSPKLLLYKVSNRFSGVSDRFSGSGSGTDFTLKISRVEAEDLGVYFCSQNTHVPPTFGGGTKLEIK
– | binds | binds | 单链抗体P20 (anti-human C-reactive protein scFv P20) (scFv) scFv: EVMLVESGGGLVKPGGSLKLSCAASGFTFSSYAMSWVRQTPERRLEWVATISTSGSDRYYPDSVKWRFTISRDSAKNILYLQMSSLRSEDTAMYYCARRGWDYWGQGTSVTVSAGGGGSGGGGSGGGGSDVVMTQTPLSLPVSLGDQASISCRSSQSLVHSNGNTYLHWYLQKSGQSPKLLLYKVSNRFSGVSDRFSGSGSGTDFTLKISRVEAEDLGVYFCSQNTHVPPTFGGGTKLEIKR
